In article PMC9168726:
These are yes or no findings as the source states them, for the method shown. In cells and extracts the contact can be indirect. Binding calls can cover weak binding; strength is not graded here. Tags and fused reporters may be left off the sequences shown.

Amino acid sequences for entries named in this document (tags omitted). A change or cut given only in a name is not applied to a line headed by its entry.
UniProt P08913: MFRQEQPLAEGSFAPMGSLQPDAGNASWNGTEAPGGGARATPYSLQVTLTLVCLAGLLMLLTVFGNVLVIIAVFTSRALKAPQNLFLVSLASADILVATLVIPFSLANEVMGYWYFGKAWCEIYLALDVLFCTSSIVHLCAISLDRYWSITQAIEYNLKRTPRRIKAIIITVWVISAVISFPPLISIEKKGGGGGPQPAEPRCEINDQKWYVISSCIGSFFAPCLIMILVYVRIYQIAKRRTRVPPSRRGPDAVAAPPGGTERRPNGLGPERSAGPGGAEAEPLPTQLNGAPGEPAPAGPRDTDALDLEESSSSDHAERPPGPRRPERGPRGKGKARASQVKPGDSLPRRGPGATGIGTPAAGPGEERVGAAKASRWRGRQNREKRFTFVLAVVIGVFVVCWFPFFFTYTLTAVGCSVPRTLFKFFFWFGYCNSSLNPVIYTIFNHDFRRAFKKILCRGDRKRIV

How the values were obtained:
[1] = biological target: GST fusion protein of the third intracellular loop (ICL3) of α2A-AR; test: pull-down; purified GST fusion proteins on glutathione beads (MagneGST) incubated with HEK293 cell homogenates expressing GFP-C1orf27; 20 mM Tris-HCl pH 7.4, 140 mM NaCl, 1% Nonidet P-40, 10% glycerol, overnight at 4 °C; blot with GFP antibodies; for S296-L332 and the CT also with increasing concentrations of NaCl (binding inhibited dose-dependently); only the target purified
[2] = biological target: GST fusion protein of the C terminus (CT) of α2A-AR; test: as above
[3] = biological target: α2A-adrenergic receptor tagged with HA at its NT (UniProt P08913); test: co-IP; HEK293 cells co-transfected with HA-α2A-AR and GFP-C1orf27; lysis in 50 mM Tris-HCl pH 7.4, 150 mM NaCl, 1% Nonidet P-40, 0.5% sodium deoxycholate, 0.1% SDS; IP with HA antibodies overnight at 4 °C, protein G dynabeads; immunoblotting

Measured: binding

B1: C1orf27 tagged with GFP at its NT (protein, UniProt Q5SWX8 1-454)
chain: MGRTYIVEETVGQYLSNINLQGKAFVSGLLIGQCSSQKDYVILATRTPPKEEQSENLKHPKAKLDNLDEEWATEHACQVSRMLPGGLLVLGVFIITTLELANDFQNALRRLMFAVEKSINRKRLWNFTEEEVSERVTLHICASTKKIFCRTYDIHDPKSSARPADWKYQSGLSSSWLSLECTVHINIHIPLSATSVSYTLEKNTKNGLTRWAKEIENGVYLINGQVKDEDCDLLEGQKKSSRGNTQATSHSFDVRVLTQLLLNSDHRSTATVQICSGSVNLKGAVKCRAYIHSSKPKVKDAVQAVKRDILNTVADRCEMLFEDLLLNEIPEKKDSEKEFHVLPYRVFVPLPGSTVMLCDYKFDDESAEEIRDHFMEMLDHTIQIEDLEIAEETNTACMSSSMNSQASLDNTDDEQPKQPIKTTMLLKIQQNIGVIAAFTVAVLAAGISFHYFSD
binds: all assays above
